Reference: PubChem BioAssay AID587 (National Center for Advancing Translational Sciences (NCATS), 2007)
Where “and” joins values, the source holds several entries; their conditions need not be identical. Identical values can stand only once. About 35 (0.06%) of roughly 59,000 compounds were called active. The inconclusive results got no clear call from the source; some entries with a clear call stand among them for comparison. Rule as the data show it: active = max dye-equivalent concentration above about 10 nM; inconclusive = between about 1.1 nM and that limit; inactive = weaker than that.

experiment: qHTS Assay for Spectroscopic Profiling in Texas Red Spectral Region; conditions: Compound fluorescence, Texas Red channel, 547/618 nm; hits give high values
Summary of the method: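 Texas Red-region profiling: compounds in 100 mM Tris pH 8.0 were read at 547/618 nm after 15 min at room temperature. Intensities were normalized against a six-point Texas Red standard series to give dye-equivalent concentration.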

SMILES	max dye-equivalent concentration
O=C(O)CCn1cnc2ccccc2c1=O	inconclusive: 1.3e-09 M
O=c1c(-c2ccc(O)cc2)coc2cc(O)ccc12	inconclusive: 1.6e-09 M
C=CCOc1cccc(C2C(C(=O)c3ccc(C)o3)=C(O)C(=O)N2c2nccs2)c1 (stereo not given)	inactive
COc1ccc(Oc2nc(C)nc3c2oc2ccccc23)cc1	inconclusive: 1.5e-09 M
CCn1nnnc1NCc1cccn1C	inconclusive: 1.4e-09 M
CSc1ccc2[nH]c(=O)cc(C)c2c1	inconclusive: 1.5e-09 M
Cc1ccccc1NS(=O)(=O)c1ccc(OCC(=O)NCc2ccco2)cc1	inconclusive: 1.1e-09 M
Cc1cc(NC(=O)c2ccc(NC(=O)C(C)Oc3ccccc3)cc2)no1 (stereo not given)	inconclusive: 1.5e-09 M
CC(CC(=O)Nc1ccncc1)c1ccccc1 (stereo not given)	inconclusive: 1.1e-09 M
Cc1ccc(C(=O)O)cc1S(=O)(=O)NCC1CCCO1 (stereo not given)	inconclusive: 1.3e-09 M
CCOC(=O)c1cc(C#N)c(SCc2ccc(C#N)cc2)nc1C	inconclusive: 2e-09 M
Cc1occc1-c1nnc(SCC(=O)Nc2ccc3c(c2)OCO3)n1CC1CCCO1 (stereo not given)	inconclusive: 1.5e-09 M
Cc1cnc(C)c(N2CCC(C(=O)NCc3ccco3)CC2)n1	inconclusive: 1.4e-09 M
NC1=C2NC=N[C@@H]2N(C/C=C\c2ccccc2)C=N1	inactive
O=C(CSc1ccccc1)N1CCN(c2ccccc2)CC1	inconclusive: 1.4e-09 M
COc1ccc2nc(NC3=NCCC3)sc2c1	inconclusive: 1.6e-09 M
Cc1cc(NC(=O)c2sc(Nc3cccc(C(F)(F)F)c3)nc2N)no1	inconclusive: 1.5e-09 M
Cc1cccc(OCC(=O)Nc2ccccc2N2CCN(C(=O)C(C)C)CC2)c1C	inconclusive: 1.3e-09 M
Cc1cc(C(=O)CSc2nnc(Cc3ccccc3)o2)c(C)n1Cc1ccc2c(c1)OCO2	inconclusive: 1.1e-09 M
O=C(O)CC12C[C@H]3C[C@@H](CC(O)(C3)C1)C2	inconclusive: 1.2e-09 M
Cc1ccc(-c2csc(N(CC3CCCO3)C(=O)c3ccco3)n2)cc1 (stereo not given)	inconclusive: 1.3e-09 M
C=CCn1c(N)c(C(=O)NCC2CCCO2)sc1=S (stereo not given)	inconclusive: 1.1e-09 M
O=C(O)C1OC(C(=O)O)C2C1C(F)(F)C2(F)F (stereo not given)	inconclusive: 1.3e-09 M
C=CCN1C(=O)CSc2ccc(C(=O)NCc3ccco3)cc21	inconclusive: 1.1e-09 M
COc1ccccc1NC(=O)CC1Nc2ccccc2NC1=O (stereo not given)	inactive
c1nnc2c3c4c(sc3ncn12)CCCC4	inconclusive: 1.5e-09 M
CC(=O)c1cc2c(cc1NC(=O)CN1CCN(c3ccc(F)cc3)CC1)OCO2	inconclusive: 1.5e-09 M
CNC(=O)c1c(I)c(C(=O)NCC(=O)Nc2c(I)c(C(=O)O)c(I)c(C(=O)NCCO)c2I)c(I)c(N(C)C(C)=O)c1I	inconclusive: 1.2e-09 M

SMILES	max dye-equivalent concentration
COc1ccccc1NC(=O)CSc1nnc(-c2ccccn2)n1Cc1ccco1	inconclusive: 1.3e-09 M
O=C(CC1NC(=O)NC1=O)Nc1cccc2ccccc12 (stereo not given)	inactive
COc1ccc(-c2nc3cnc(N4CCOCC4)nc3n(Cc3cccc(OC)c3)c2=O)cc1	inconclusive: 1.2e-09 M
CCCCNc1cc(C(=O)O)cc(S(N)(=O)=O)c1Oc1ccccc1	inconclusive: 1.8e-09 M
CCCc1ccc(C(=O)N2CCN(c3ccccc3OCC)CC2)cc1	inconclusive: 1.1e-09 M
CCc1nc(SCC(=O)NCc2ccco2)c2c3c(sc2n1)CCCC3	inconclusive: 2.7e-09 M
O=C(O)c1cc(Cl)c2ccccc2c1O	inactive
CCCNS(=O)(=O)c1ccc(OCC(=O)NCCCOC)cc1	inconclusive: 2.3e-09 M
COc1cccc(NS(=O)(=O)c2ccc3c(c2)n(C)c(=O)c(=O)n3C)c1	inactive
CN(c1ccccc1)c1ccc(/C=c2\s/c(=C(/C#N)C(=O)C(C)(C)C)n(Cc3ccco3)c2=O)cc1	active: 5.4e-08 M
CSc1ccc(S(=O)(=O)NCc2ccccc2Cl)cc1	inconclusive: 1.1e-09 M
CS(=O)(=O)N(Cc1ccco1)Cc1ccccc1Cl	inconclusive: 1.2e-09 M
O=C(CCn1nnc2ccccc21)Nc1nnc(Cc2ccccc2)s1	inconclusive: 1.3e-09 M
Cn1c(CN2CCCCC2)nc2cc(NC(=O)c3ccc(F)cc3)ccc21	inconclusive: 1.2e-09 M
O=c1c(-c2ccccc2)nc2cnc(N3CCOCC3)nc2n1-c1ccccc1	inconclusive: 1.1e-09 M
Cc1cccc(C)c1NC(=O)CS(=O)CC(=O)NC1CCCc2ccccc21 (stereo not given)	inconclusive: 1.1e-09 M
O=C1C(C2=C(O)c3ccccc3C2=O)=Nc2ccccc21	inconclusive: 1.3e-09 M
Nc1nc(Cl)nc2c1ncn2[C@@H]1O[C@@H](COP(=O)(O)OP(=O)(O)OP(=O)(O)O)[C@@H](O)[C@H]1O	inactive
O=C(COc1cccc(-n2cnnn2)c1)NCCC1=CCCCC1	inconclusive: 1.2e-09 M
COc1cc(N2C(=O)NC3CC2(C)Oc2ccccc23)cc(OC)c1OC (stereo not given)	inactive
O=C(Cc1c(F)cccc1Cl)N1CCN(C(=O)c2ccco2)CC1	inconclusive: 1.5e-09 M
Cn1c(=O)c2c(nc(NCCNC(=O)c3ccco3)n2Cc2ccccc2Cl)n(C)c1=O	inconclusive: 1.1e-09 M
Cc1[nH]c2ccccc2c1-c1cc(-c2cc(-c3c(C)[nH]c4ccccc34)nc(N)n2)nc(N)n1	inconclusive: 1.1e-09 M
O=c1[nH]c(CN2CCN(C/C=C/c3ccccc3)CC2)nc2cc(Cl)ccc12	inconclusive: 2e-09 M
COc1ccc2c(c1OC)C(=O)OC2[C@H]1c2c(cc3c(c2OC)OCO3)CCN1C (stereo not given in full)	inconclusive: 1.8e-09 M and inconclusive: 1.2e-09 M
C[N+](C)(C)CCNC(=O)c1c(O)c2c([nH]c1=O)CCCC2	inconclusive: 1.8e-09 M
Cn1c(=O)oc2cc(S(=O)(=O)N3CCC(C(=O)Nc4ccc(OC(F)(F)F)cc4)CC3)ccc21	inconclusive: 1.1e-09 M
